B1: GST-Sdcbp (protein, UniProt F1QFG9 1-307)
chain: MSLYPSLEDMKVDKFIQAHNTPTASPSKALPLPEPSSDQNEPSTYYDSKAEQTGTSSRLYPELNEFMGLNLSSDALQTFSSSIADQTAGALSVCTSGMSWAAAPITGSDLGVKRAEIRQGVREVVLCKDMDGKIGLRLKAIDNGVFVQLVQANTAAALAGLRFGDQILEINGKSCAGWNSDYAHKVLKNSNPERITLAVRDRPLERTVTLHKDMNGQLGFIFRKGRITSIVKDSSSARNGLLTDHQICEINGQNIIGLKDTQIMDILNSSGGVVTITVMPVVIFEHMMKRMSSSIVKSLMDHSIPEV
B2: GST-Hmgb1a (protein, UniProt Q6NX86 1-205)
chain: MGKDPTKPRGKMSSYAYFVQTCREEHKKKHPEATVNFSEFSKKCSERWKTMSAKEKGKFEDMAKLDKARYEREMKNYIPPKGEKKKRFKDPNAPKRPPSAFFIFCSEFRPKVKEETPGLSIGDVAKRLGEMWNKISSEEKQPYEKKAAKLKEKYEKDIAAYRSKGKVGGGAAKAPSKPDKANDEDEDDDEEEDEDDDDEEEEDDE
B3: GST-Oaz1a (protein, UniProt Q9YI98 1-214)
chain: MVKSNLQTILNSHCFVREKESNIPKMPVIELTRNKPESESSHRCSNPCPGPLWCSDVPLPPLKIPGGRGNDQRDHSLSAKLFYSDAQLLVLEEAPQSNSRVRFLLFERRCSVSKHLVWRGALKGTNLYIEIPTGVLPEGSKDSFSLLLEFAEEKLQVDHVFICFHKSRDDRASLLRTFSFMGFEIVRPGHPLVPTRPDAFFMAYRIERDSDGDE

Data on three molecules can be found in PMC9859826.

Results are given in words; binding and its absence hold for the method and conditions named. Binding seen in cells or lysates may run through a third protein. Binding can be weak; no strength is given. Sequences can lack the tags named with a protein.

The assay concerns the target full-length FLAG-Hmx3a (zebrafish). The experiment in a line: co-IP; 5 µg purified GST-fusion incubated 30 min at room temperature with lysate of zebrafish embryos expressing a FLAG-Hmx3a construct in 500 µl 50 mM Tris pH 8.0, 150 mM NaCl, 1 mM EDTA, 1% Triton X-100; anti-FLAG on Protein G Dynabeads overnight at 4 °C, 4 washes; blots for GST and FLAG; uninjected lysate as control; only the binder purified.
With B1, the binding entry was “no binding (tested: 5 µg GST-fusion in 500 µl)”.

Consider B2, for which the binding entry was “binds”.

As to B3, the binding result was “no binding (tested: 5 µg GST-fusion in 500 µl)”.
